Among all 300,000 compounds or so, about 3,700 (1.2%) were called active. Inconclusive results, whose numbers are uncertain, are shown with a selection of clear calls. The call rests on the fitted dose curve; tested in HEK293 cells. Potencies beside an inconclusive call are fits to weak or partial responses and may not hold up.
Experiment: qHTS for Inhibitors of binding or entry into cells for Lassa Virus; further: nearly all actives have a fitted effect of over 50% in size
Settings: Lassa virus pseudotype entry inhibition, cell reporter; series mostly up to 37.9 µM
Potency means the concentration at half of the fitted maximal effect.

SMILES | Potency
c1ccc2[nH]c(CSc3ncnc4c3oc3ccccc34)nc2c1 | inactive
Cc1cc(N2CCC(C)CC2)n2nc(C)c(-c3ccccc3)c2n1 | inactive
CCOc1ccc(C2C(C#N)=C(N)N(c3sc4c(c3C#N)CCCC4)C3=C2C(=O)CCC3)cc1 (stereo unspecified) | inconclusive: 5.8 µM [inhibitor, full curve]
COc1ccc(/C=C/c2nc(C#N)c(NCCc3ccc(OC)c(OC)c3)o2)cc1OC | inconclusive: 15.8 µM [inhibitor, single point]
CCOC(=O)/C(=N\Nc1ccccc1Cl)N1CCN(Cc2ccccc2)CC1 | inactive
CCOC(=O)c1cc(-c2ccc(C)cc2)n(CCC(=O)N2CCN(c3ccccn3)CC2)c1C | active: 15.8 µM
O=C1CCCCN1CCCC(=O)N1CCCC(Nc2ccc(F)c(F)c2)C1 (stereo unspecified) | inconclusive: 5.01 µM [inhibitor, partial curve, poor fit]
Cc1ccc(-c2csc(NC(=O)c3ccc(C)o3)n2)cc1 | inactive
Cc1c(-c2nc(N)nc(Nc3ccccc3)n2)oc2ccccc12 | inconclusive: 4.47 µM [activator, partial curve, poor fit]
CCCCNC(=O)CSc1nc2nc(C)c(Cc3ccccc3C)c(C)n2n1 | inconclusive: 1.12 µM [inhibitor, full curve, poor fit]
COc1cc(NS(=O)(=O)c2ccc(NC(=O)c3ccccc3C(=O)O)cc2)nc(OC)n1 | inconclusive: 3.16 µM [activator, single point]
Cc1ccc(C2=C(c3ccc([N+](=O)[O-])cc3)C(=O)OC2)cc1C | inconclusive: 7.08 µM [inhibitor, partial curve]
CCC(C)C(=O)N1CCCC(c2nc(-c3cccs3)no2)C1 (stereo unspecified) | inconclusive: 5.62 µM [activator, partial curve, poor fit]
CCOC(=O)/C(=N\Nc1ccc(OC)cc1)c1csc(Nc2ccccc2)n1 | inactive
COc1ccc2cc(CCNC(=O)c3ccc(S(=O)(=O)N4CCOCC4)cc3)c(=O)[nH]c2c1 | inconclusive: 20 µM [inhibitor, single point]
O=[N+]([O-])c1ccc(F)cc1OCc1nc(-c2cccs2)no1 | inconclusive: 35.5 µM [inhibitor, single point]
O=C(/C=C/c1ccccc1)NC(NC(=S)Nc1ccc(Cl)cc1)C(Cl)(Cl)Cl (stereo unspecified) | inconclusive: 10.3 µM [inhibitor, partial curve, poor fit]
CCSc1nc2ccccc2n1CC(=O)N1CCCCC1 | inactive
Cc1cccc(OCCCCCn2ccnc2)c1C | inconclusive: 16.4 µM [inhibitor, partial curve, poor fit]
O=C(Nc1ccc(CN2CCOCC2)cc1)c1cc2ccccc2o1 | inactive
O=C(Nc1ncccc1O)c1ccc2c(c1)OCCO2 | inconclusive: 0.112 µM [activator, full curve, poor fit]
CCOC(=O)c1cc(C)n(CC2CCC(C(=O)Nc3ccc(Cl)cc3)CC2)c1C (stereo unspecified) | inactive

Part of the list above, field by field.
CCOC(=O)c1cc(-c2ccc(C)cc2)n(CCC(=O)N2CCN(c3ccccn3)CC2)c1C
  Potency: active: 15.8 µM
O=C1CCCCN1CCCC(=O)N1CCCC(Nc2ccc(F)c(F)c2)C1 (stereo unspecified)
  Potency: inconclusive: 5.01 µM [inhibitor, partial curve, poor fit]

Further records.

SMILES | Potency
CCN(CC)CCCn1c2c(c(SCC(=O)N3CCCc4ccccc43)nc1=O)CCC2 | inactive
CCOC(=O)C1CCCN(C(=O)/C=C/c2ccc(Cl)cc2)C1 (stereo unspecified) | inconclusive: 11.6 µM [inhibitor, partial curve]
COc1ccc(/C=N\NC(=O)c2ccccc2F)cc1COc1ccc(F)cc1F | inconclusive: 3.16 µM [inhibitor, partial curve, poor fit]
O=C(NCc1cccnc1)C1CCN(Cc2cc3ccccc3n2Cc2cccc(Cl)c2)CC1 | inactive
Cc1cc(S(=O)(=O)Nc2ccc(C(=O)N3CC(C)OC(C)C3)cc2)ccc1F (stereo unspecified) | inconclusive: 12.6 µM [inhibitor, partial curve]
CC(CCC(C)OC(=O)c1ccccc1C(=O)O)OC(=O)c1ccccc1C(=O)O (stereo unspecified) | inconclusive: 1.58 µM [activator, full curve, poor fit]
Cc1cc2nc(C3CCCN(C(=S)Nc4ccccc4)C3)[nH]c2cc1C (stereo unspecified) | inconclusive: 32.6 µM [inhibitor, single point]
O=C(NCCc1ccccc1)c1cccnc1 | inconclusive: 14.6 µM [activator, single point]
O=C(CC1CCCC1)Nc1ccc(Br)cc1 | inconclusive: 6.31 µM [activator, partial curve, poor fit]
CC(=O)N(C(C)=O)c1c(C#N)c(C)n(-c2ccccc2)c1C(=O)c1ccccc1 | inconclusive: 8.91 µM [inhibitor, partial curve, poor fit]
CCCCc1nnc(SCc2cc(=O)c3cc(C(=O)OCC)ccc3[nH]2)n1C | inconclusive: 6.31 µM [inhibitor, single point]
CCn1c(C)cc(O)cc1=O | inconclusive: 0.631 µM [activator, full curve, poor fit]
CCOc1ccc(-c2nc(-c3cccnc3)no2)cc1 | active: 10 µM
O=C(Nc1cccc(C(=O)N2CCN(c3ccc(Cl)cc3)CC2)c1)c1nsc2ccccc12 | inconclusive: 35.5 µM [inhibitor, single point]
Cc1cc(=O)[nH]c(SCC(=O)/C=C2\N(C)c3ccccc3C2(C)C)n1 | inconclusive: 29.1 µM [inhibitor, single point]
COc1ccc(-n2c(=O)c3ccc(C(=O)NCc4ccc(C)cc4)cc3n(CC(=O)Nc3ccc(F)cc3)c2=O)cc1 | inactive
CC1CCc2sc(C(=O)OCC(=O)NC(C)C)cc2C1 (stereo unspecified) | inconclusive: 11.2 µM [activator, partial curve, poor fit]
N#Cc1ccccc1Cn1cc(C#N)c2ccccc21 | inconclusive: 3.98 µM [inhibitor, partial curve, poor fit]
O=C(Nc1cnn(Cc2c(Cl)cccc2Cl)c1)C(c1ccccc1)c1ccccc1 | inconclusive: 20 µM [inhibitor, partial curve, poor fit]
CCOc1ccc(N(CCCCO)C(=S)NC(=O)c2ccc(C)c(Br)c2)cc1 | inconclusive: 35.5 µM [inhibitor, single point]
Cc1ccc(C(=O)N/N=C/c2ccc3c(c2)OCO3)o1 | inconclusive: 2.91 µM [activator, partial curve, poor fit]
O=C(OCc1cc(=O)n2nc(C3CC3)sc2n1)c1ccc(F)cc1 | inconclusive: 31.6 µM [activator, single point]

Quoted from above (2 entries):
SMILES | Potency
O=C1CCCCN1CCCC(=O)N1CCCC(Nc2ccc(F)c(F)c2)C1 (stereo unspecified) | inconclusive: 5.01 µM [inhibitor, partial curve, poor fit]
Cc1ccc(-c2csc(NC(=O)c3ccc(C)o3)n2)cc1 | inactive

Later entries

SMILES | Potency
COC(=O)C1=CN(c2cccc(C)c2)C=C(C(=O)OC)C1c1cc(OC)c(O)c([N+](=O)[O-])c1 | active: 4.11 µM
COc1ccccc1Nc1nc(C2(C)CCC(=O)O2)cs1 (stereo unspecified) | inconclusive: 0.0041 µM [activator, full curve, poor fit]
CCOC(=O)c1sc(NC(=O)CSC(=S)N2CCN(C)CC2)nc1C | inactive
O=C1CC(N(CCc2ccccc2)C(=S)Nc2ccccc2)C(=O)N1c1ccc(Br)cc1 (stereo unspecified) | inconclusive: 14.1 µM [inhibitor, partial curve, poor fit]
CCn1c(O)c(/C=C2\C=Nc3ccccc32)sc1=Nc1ccc(C)cc1 | inconclusive: 14.6 µM [inhibitor, partial curve, poor fit]
Cc1cccc(NC(=O)c2ccc(N3CCCCC3)c([N+](=O)[O-])c2)n1 | inconclusive: 35.5 µM [inhibitor, single point]
Cc1ccc(C(=O)NNC(=O)OC(C)(C)C)c(Cl)c1 | inconclusive: 15.8 µM [activator, single point]
Cc1cc(CNC(=O)Cn2nc(C)c([N+](=O)[O-])c2C)c2ccccc2n1 | inconclusive: 0.891 µM [activator, single point]
Cc1cccc(/C(N)=N/OC(=O)c2ccco2)c1 | inconclusive: 0.355 µM [activator, full curve, poor fit]
Nc1nc(Br)c2ccccc2c1-c1ccc(F)cc1 | inconclusive: 18.3 µM [activator, single point]
COc1ccccc1C(=O)NCc1ccccc1 | inactive
CN(C)c1ccc(CN(CC2CCCO2)C(=O)c2ccc(Br)cc2)cc1 (stereo unspecified) | inconclusive: 7.08 µM [inhibitor, full curve, poor fit]
CN1C(=O)NC(=O)[C@]2(Cc3ccccc3N3CCN(c4ccccc4)CC32)C1=O (stereo partly specified) | inactive
COc1ccc(Cn2c(SCC(N)=O)nc3c(sc4ccccc43)c2=O)cc1 | inconclusive: 10 µM [activator, single point]
Cc1nnc(SCc2cccc([N+](=O)[O-])c2)o1 | inconclusive: 2.82 µM [activator, partial curve, poor fit]
O=C(CNC(=O)c1ccc(Br)cc1)NCC(=O)OCC(=O)c1ccc([N+](=O)[O-])cc1 | inactive
Cc1ccc(SCc2nnc(NC(=O)c3ccccc3)s2)cc1 | inconclusive: 29.1 µM [inhibitor, single point]
COc1ccc(C(=O)Nc2ccccc2C(=O)N/N=C/c2ccco2)cc1 | inconclusive: 35.5 µM [inhibitor, single point]
O=C(Cc1ccc(NC(=O)N2CCCCc3ccccc32)cc1)NCc1ccccc1 | inconclusive: 5.62 µM [inhibitor, partial curve, poor fit]
Oc1ccc(/C=N/n2c(-c3ccccc3)n[nH]c2=S)cc1 | inconclusive: 3.98 µM [inhibitor, partial curve, poor fit]
Cc1c(NC(=O)COC(=O)c2cc(-c3ccc(-c4ccccc4)cc3)nc3ccccc23)c(=O)n(-c2ccccc2)n1C | active: 0.891 µM
CCN(CC)CCn1c2c(c(SCC(=O)Nc3nc(C)cs3)nc1=O)CCC2 | inactive
